The chains behind the UniProt entries cited, without tags or fusion partners.
UniProt P08151: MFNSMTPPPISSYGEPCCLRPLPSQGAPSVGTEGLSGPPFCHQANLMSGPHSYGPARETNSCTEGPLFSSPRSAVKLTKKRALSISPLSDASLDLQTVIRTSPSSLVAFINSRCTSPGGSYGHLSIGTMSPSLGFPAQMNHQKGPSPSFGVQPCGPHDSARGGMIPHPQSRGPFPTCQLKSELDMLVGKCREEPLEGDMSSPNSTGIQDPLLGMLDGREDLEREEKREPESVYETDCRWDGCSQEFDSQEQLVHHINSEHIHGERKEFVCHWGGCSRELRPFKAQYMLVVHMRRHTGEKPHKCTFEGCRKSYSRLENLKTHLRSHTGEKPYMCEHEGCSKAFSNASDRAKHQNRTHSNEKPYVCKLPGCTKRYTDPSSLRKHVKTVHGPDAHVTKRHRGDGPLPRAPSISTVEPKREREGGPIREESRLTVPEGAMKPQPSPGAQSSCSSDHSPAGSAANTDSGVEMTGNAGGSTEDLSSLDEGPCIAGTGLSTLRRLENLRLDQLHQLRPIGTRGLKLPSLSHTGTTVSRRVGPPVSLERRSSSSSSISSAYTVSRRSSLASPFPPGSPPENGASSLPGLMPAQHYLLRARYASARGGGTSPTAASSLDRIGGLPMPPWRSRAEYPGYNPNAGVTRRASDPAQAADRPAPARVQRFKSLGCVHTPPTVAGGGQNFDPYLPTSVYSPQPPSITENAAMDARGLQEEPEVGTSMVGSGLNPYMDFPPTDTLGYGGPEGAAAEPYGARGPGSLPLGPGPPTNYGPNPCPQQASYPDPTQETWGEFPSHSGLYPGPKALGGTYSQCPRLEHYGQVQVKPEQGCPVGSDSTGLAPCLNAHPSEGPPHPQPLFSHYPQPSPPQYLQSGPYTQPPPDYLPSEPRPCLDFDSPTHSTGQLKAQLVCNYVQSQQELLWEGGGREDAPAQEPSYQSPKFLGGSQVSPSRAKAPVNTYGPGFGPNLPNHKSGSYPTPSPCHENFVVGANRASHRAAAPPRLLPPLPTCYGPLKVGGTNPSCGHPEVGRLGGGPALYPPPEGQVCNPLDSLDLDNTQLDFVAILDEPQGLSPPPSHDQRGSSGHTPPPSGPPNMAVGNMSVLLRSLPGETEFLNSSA

According to article PMC5356604:

Target: HA-tagged Gli1 (expressed in HEK293T cells) (UniProt P08151)
Assay: affinity purification with mass spectrometry; HA-Gli1 transfected into HEK293T cells and immunoprecipitated; bound proteins separated by SDS-PAGE, silver stained, differential bands identified by mass spectrum

B1: WW45 (endogenous, HEK293T cells) (protein, UniProt Q9H4B6 1-383)
chain: MLSRKKTKNEVSKPAEVQGKYVKKETSPLLRNLMPSFIRHGPTIPRRTDICLPDSSPNAFSTSGDVVSRNQSFLRTPIQRTPHEIMRRESNRLSAPSYLARSLADVPREYGSSQSFVTEVSFAVENGDSGSRYYYSDNFFDGQRKRPLGDRAHEDYRYYEYNHDLFQRMPQNQGRHASGIGRVAATSLGNLTNHGSEDLPLPPGWSVDWTMRGRKYYIDHNTNTTHWSHPLEREGLPPGWERVESSEFGTYYVDHTNKKAQYRHPCAPSVPRYDQPPPVTYQPQQTERNQSLLVPANPYHTAEIPDWLQVYARAPVKYDHILKWELFQLADLDTYQGMLKLLFMKELEQIVKMYEAYRQALLTELENRKQRQQWYAQQHGKNF
**Q.** How did the binding turn out when B1 was run?
**A.** binds

No constants are given. Whether binding was seen depends on the method and setting. Binding seen in cells or lysates may run through a third protein. These calls come from enrichment with a bait or labelling near it, and not all partners need be listed.
